Measured values taken from the supplement of paper PMC10398353.
Several values for one entry are separate records, joined by “and”; a condition that tells them apart may be missing. Equal entries are not always repeated. Structures can show the parent of a compound that is named as a salt. ± gives the standard deviation of the averaged measurements. Some of the results follow. The data scatter; read single values as rough.

tested on: Salmonella enterica serovar Typhimurium ST313 D23580; experiment: normalized bacterial growth (OD600 20 h minus 0 h, interquartile-mean normalized) (fraction of plate interquartile mean); higher = more bacterial growth (less inhibition); conditions: LPM (pH 5.8, low phosphate, low Mg2+), concentration: 10 µM, temperature: 37 °C

| SMILES | normalized bacterial growth |
| --- | --- |
| COc1cc([C@@H]2c3cc4c(cc3[C@H](O)[C@H]3COC(=O)[C@@H]23)OCO4)cc(OC)c1OC | 0.783 |
| CCCC(C)C1(CC)C(=O)NC(=S)NC1=O (stereo not drawn) | 1.22 |
| C/C=C(/C)C(=O)O[C@H]1CC[C@@]2(C)[C@@H]3CC[C@H]4[C@]5(O)C[C@H](O)[C@@]6(O)[C@@H](CN7C[C@@H](C)CC[C@H]7[C@@]6(C)O)[C@]5(O)C[C@@]42O[C@]13O | 0.866 ± 0.032 |
| O=c1ccc2c(O)c3ccoc3cc2o1 | 1.19 |
| ClC1=C(Cl)C2(Cl)C3C4CC(C5OC45)C3C1(Cl)C2(Cl)Cl (stereo not drawn) | 1.11 |
| CCCCCCC(C)(C)c1ccc([C@@H]2C[C@H](O)CC[C@H]2CCCO)c(O)c1 | 0.728 |
| CCCn1c(=O)c2[nH]c(C3CCCC3)nc2n(CCCOC(=O)c2ccc(S(=O)(=O)F)cc2)c1=O | 0.945 |
| CCOC(=O)c1cncn1[C@H](C)c1ccccc1 | 0.907 |
| COc1cc2ccc(=O)oc2c2ccoc12 | 0.909 |
| NCC1(CC(=O)O)CCCCC1 | 1.1 |
| NCC1(CC(=O)O)CCCCC1 [Gabapentin] | 1.35 |
| O=c1cccc2n1C[C@@H]1CNC[C@H]2C1 | 1.19 and 1.01 |
| CC[C@@H](C)C(=O)O[C@H]1[C@H](O)[C@H]2[C@@H](CN3C[C@@H](C)CC[C@H]3[C@@]2(C)O)[C@@H]2C[C@]34O[C@]5(O)[C@@H](OC(=O)[C@@](C)(O)CC)CC[C@@]3(C)[C@@H]5[C@@H](OC(C)=O)[C@@H](OC(C)=O)[C@H]4[C@@]21O | 0.532 |
| CC[C@@H](C)C(=O)O[C@H]1[C@H](O)[C@H]2[C@@H](CN3C[C@@H](C)CC[C@H]3[C@@]2(C)O)[C@@H]2C[C@]34O[C@]5(O)[C@@H](OC(=O)[C@@](C)(O)CC)CC[C@@]3(C)[C@@H]5[C@@H](OC(C)=O)[C@@H](OC(C)=O)[C@H]4[C@@]21O [Protoveratrine A] | 1.12 |
| COC[C@H]1OC(=O)c2coc3c2[C@@]1(C)C1=C(C3=O)C2CCC(=O)[C@@]2(C)C[C@H]1OC(C)=O (stereo partly drawn) [Wortmannin from Penicillium funiculosum] | 1.15 |
| O=C(CCCN1CCC2(CC1)C(=O)NCN2c1ccccc1)c1ccc(F)cc1 [Spiperone hydrochloride] | 0.867 |
| O=C(CCCN1CCC2(CC1)C(=O)NCN2c1ccccc1)c1ccc(F)cc1 | 0.921 |
| CC(C)C[C@H]1C(=O)N2CCC[C@H]2[C@]2(O)O[C@](NC(=O)[C@@H]3C=C4c5cccc6[nH]cc(c56)C[C@H]4N(C)C3)(C(C)C)C(=O)N12 [Ergocryptine-alpha] | 0.672 |
| CC1=CCCC2C1(C)CCC(C)C2(C)CC/C(C)=C/Cn1c[n+](C)c2c(N)ncnc21 (stereo not drawn) [AGELASINE (stereochemistry of diterpene unknown)] | 0.902 |
| CC1(C)C(=O)[C@@H]2O[C@@H]2[C@@]2(C)C1C[C@@H](O)[C@]1(C)C2CC[C@@]2(C)[C@H](c3ccoc3)OC(=O)C3OC321 (stereo partly drawn) ["1,2alpha-EPOXYDEACETOXYDIHYDROGEDUNIN"] | 0.74 |
| O=[N+]([O-])O[C@H]1CO[C@H]2[C@@H]1OC[C@H]2O[N+](=O)[O-] | 0.879 |
| CCN1C[C@]2(COC)CC[C@H](O)[C@]34C1[C@@](O)([C@@H](OC)[C@H]23)[C@@]1(O)C[C@H](OC)[C@H]2C[C@@H]4[C@@H]1[C@H]2OC [Delsoline] | 1.14 |

Two records drawn at random from the list so far, as already listed:

| SMILES | normalized bacterial growth |
| --- | --- |
| O=c1ccc2c(O)c3ccoc3cc2o1 | 1.19 |
| CCN1C[C@]2(COC)CC[C@H](O)[C@]34C1[C@@](O)([C@@H](OC)[C@H]23)[C@@]1(O)C[C@H](OC)[C@H]2C[C@@H]4[C@@H]1[C@H]2OC [Delsoline] | 1.14 |

Next results follow:

| SMILES | normalized bacterial growth |
| --- | --- |
| CCN1C[C@]2(COC)CC[C@H](OC)[C@]34C5C[C@@H]6[C@@H](OC)C[C@@]7(OCO[C@@]7(C13)[C@@H](O)C24)C5[C@H]6OC (stereo partly drawn) [Delcorine] | 1.25 |
| CCN1C[C@]2(COC)CC[C@H](OC)[C@]34C5C[C@@H]6[C@@H](OC)C[C@@]7(OCO[C@@]7(C13)[C@@H](O)C24)C5[C@H]6OC (stereo partly drawn) | 1.03 |
| CC(C)Oc1cccnc1N(C)C1CCN(Cc2ccccc2)CC1 | 1.14 |
| c1cncc([C@@H]2CCCCN2)c1 [Anabasine] | 0.957 |
| c1cncc([C@@H]2CCCCN2)c1 | 1.18 and 0.994 |
| COc1cc(C(O)CN)ccc1O (stereo not drawn) [()-Normetanephrine hydrochloride] | 1.05 |
| NC(Cc1cc(O)c(O)cc1O)C(=O)O (racemic) [6-Hydroxy-DL-DOPA] | 1.14 |
| CC(=O)O[C@H]1C(=O)[C@@]2(C)[C@H]([C@H](OC(=O)c3ccccc3)[C@]3(O)C[C@H](O)C(C)=C1C3(C)C)[C@]1(OC(C)=O)CO[C@@H]1C[C@@H]2O | 0.935 ± 0.11 |
| CC(C)(C#N)O[C@@H]1O[C@H](CO)[C@@H](O)[C@H](O)[C@H]1O | 1.01 |
| CC(C)(O)[C@@H]1[C@H]2OC(=O)[C@@H]1[C@]1(O)C[C@H]3O[C@]34C(=O)O[C@H]2[C@]14C | 0.978 |
| O=c1[nH]oc2c1CCNC2 [THIP hydrochloride] | 1.01 |
| C=C(C)[C@H]1Cc2c(ccc3c(=O)c4c(oc23)COc2cc(OC)c(OC)cc2-4)O1 | 0.925 |
| COc1ccc2c(c1O)-c1cccc3c1[C@@H](C2)N(C)CC3 [R(-)-Apocodeine hydrochloride] | 1.04 |
| CCC(C)C(=O)OC1CC2(C)C(c3ccoc3)OC(=O)CC23OC2(C)OC34C(OC(=O)C(C)C)C3(O)C(OC(=O)C5(C)OC5C)C5(C)CC3(O)C(C)(C5CC(=O)OC)C14O2 (stereo not drawn) | 0.845 |
| C[N+]1(C)CCc2cc3c(cc2[C@H]1[C@@H]1OC(=O)c2c1ccc1c2OCO1)OCO3 | 0.793 |
| C[N+]1(C)CCc2cc3c(cc2[C@H]1[C@@H]1OC(=O)c2c1ccc1c2OCO1)OCO3 ["(-)-Bicuculline methbromide, 1(S), 9(R)"] | 0.984 |
| C=CCc1cc(OC)c2c(c1OC)OCO2 | 1.1 |
| NC(CCP(=O)(O)O)C(=O)O (stereo not drawn) [()-2-Amino-4-phosphonobutyric acid] | 0.963 |
| C[N+]1(C)[C@@H]2CC(OC(=O)[C@H](CO)c3ccccc3)C[C@H]1[C@@H]1O[C@@H]12 (single isomer, unassigned; (-)) [(-)-Scopolamine methyl nitrate] | 1.1 |
| COc1cc2c(cc1OC)[C@@H]1C(=O)c3ccc4c(c3O[C@@H]1CO2)CC(C(C)C)O4 (stereo partly drawn) | 0.783 |
| NC(N)=Nc1ccc2[nH]c3c(c2c1)C[C@@]1(O)[C@H]2Cc4ccc(O)c5c4[C@@]1(CCN2CC1CC1)[C@H]3O5 [Guanidinyl-naltrindole di-trifluoroacetate] | 0.104 |
